The target of test [1] is T1, mCherry-RILPL1 (RILP-like protein 1) (UniProt Q5EBL4).
T1 sequence: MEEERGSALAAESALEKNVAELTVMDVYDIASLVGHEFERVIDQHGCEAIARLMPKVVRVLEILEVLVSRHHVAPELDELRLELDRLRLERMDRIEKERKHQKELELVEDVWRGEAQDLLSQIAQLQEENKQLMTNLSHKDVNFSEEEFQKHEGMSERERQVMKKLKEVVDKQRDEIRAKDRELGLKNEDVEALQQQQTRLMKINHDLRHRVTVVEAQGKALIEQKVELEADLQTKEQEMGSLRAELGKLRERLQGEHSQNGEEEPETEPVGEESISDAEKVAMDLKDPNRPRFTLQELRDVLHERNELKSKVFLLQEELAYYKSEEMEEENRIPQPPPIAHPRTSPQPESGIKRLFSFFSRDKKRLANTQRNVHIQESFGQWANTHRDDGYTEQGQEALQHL
The experiment in a line: co-IP; HEK293FT cells transfected with 3xflag-LRRK2 and mCherry-RILPL1 for 24 h, treated or not with LLOME (1 mM, 2 h); lysate (150 mM NaCl, 0.3% Triton X-100) on RFP-Trap magnetic beads, 1 h, 4°C; washes with 300 mM NaCl, 0.1% Triton X-100; immunoblot.

Protein sequences, listed by entry. Tags and fused reporters are not part of them.
UniProt P61026: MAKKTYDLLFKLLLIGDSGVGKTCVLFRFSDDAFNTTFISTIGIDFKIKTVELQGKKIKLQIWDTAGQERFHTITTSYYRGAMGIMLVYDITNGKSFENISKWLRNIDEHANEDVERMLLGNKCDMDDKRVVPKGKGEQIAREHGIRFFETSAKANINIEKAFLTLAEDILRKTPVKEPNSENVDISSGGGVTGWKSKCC

Test [2] deals with T1, mCherry-RILPL1 (RILP-like protein 1). Nature of the test: co-IP; U2OS cells transfected with 3xflag-LRRK2 and mCherry-RILPL1; lysate on RFP-Trap magnetic beads, 1 h, 4°C; washes with 300 mM NaCl, 0.1% Triton X-100; immunoblot.

Results are given in words; binding and its absence hold for the method and conditions named. In cells and extracts the contact can be indirect. Some results given as binding are weak or reduced against the parent protein; the word gives no strength.

For the substance “p150^Glued (DCTN1), dynactin subunit (from UniProt Q14203-1 1-1278)”, in test [1], the binding result was “binds”.
With “pRAB10 (RAB10 phosphorylated at T73) (from UniProt P61026 1-200)”, the binding result in test [2] and in test [1] was “binds” throughout.
